According to paper PMC11270928:
No constants are given. Whether binding was seen depends on the method and setting. In cells and extracts the contact can be indirect. Some results given as binding are weak or reduced against the parent protein; the word gives no strength.

Molecular target: T1, wingless Type MMTV Integration Site Family, Member 5 A (WNT5A) (human (endogenous in GC cells; cell line not named for the Co-IP)) (UniProt P41221)
T1 sequence: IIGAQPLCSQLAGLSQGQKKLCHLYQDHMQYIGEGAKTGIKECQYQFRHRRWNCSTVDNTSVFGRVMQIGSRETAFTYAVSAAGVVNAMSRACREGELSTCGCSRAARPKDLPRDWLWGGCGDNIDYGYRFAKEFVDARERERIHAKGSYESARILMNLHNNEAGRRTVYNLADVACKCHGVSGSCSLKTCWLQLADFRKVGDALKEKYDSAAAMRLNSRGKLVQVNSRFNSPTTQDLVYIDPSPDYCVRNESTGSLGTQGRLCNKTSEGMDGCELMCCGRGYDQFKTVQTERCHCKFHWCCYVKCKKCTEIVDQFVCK
Experiment: co-IP; cell lysates incubated with agarose coupled anti-WNT5A, anti-HK2 or anti-IgG; complex eluted, proteins detected by western blot

binding: binds
B1: hexokinase 2 (HK2) (enzyme, UniProt P52789 1-917)
chain: MIASHLLAYFFTELNHDQVQKVDQYLYHMRLSDETLLEISKRFRKEMEKGLGATTHPTAAVKMLPTFVRSTPDGTEHGEFLALDLGGTNFRVLWVKVTDNGLQKVEMENQIYAIPEDIMRGSGTQLFDHIAECLANFMDKLQIKDKKLPLGFTFSFPCHQTKLDESFLVSWTKGFKSSGVEGRDVVALIRKAIQRRGDFDIDIVAVVNDTVGTMMTCGYDDHNCEIGLIVGTGSNACYMEEMRHIDMVEGDEGRMCINMEWGAFGDDGSLNDIRTEFDQEIDMGSLNPGKQLFEKMISGMYMGELVRLILVKMAKEELLFGGKLSPELLNTGRFETKDISDIEGEKDGIRKAREVLMRLGLDPTQEDCVATHRICQIVSTRSASLCAATLAAVLQRIKENKGEERLRSTIGVDGSVYKKHPHFAKRLHKTVRRLVPGCDVRFLRSEDGSGKGAAMVTAVAYRLADQHRARQKTLEHLQLSHDQLLEVKRRMKVEMERGLSKETHASAPVKMLPTYVCATPDGTEKGDFLALDLGGTNFRVLLVRVRNGKWGGVEMHNKIYAIPQEVMHGTGDELFDHIVQCIADFLEYMGMKGVSLPLGFTFSFPCQQNSLDESILLKWTKGFKASGCEGEDVVTLLKEAIHRREEFDLDVVAVVNDTVGTMMTCGFEDPHCEVGLIVGTGSNACYMEEMRNVELVEGEEGRMCVNMEWGAFGDNGCLDDFRTEFDVAVDELSLNPGKQRFEKMISGMYLGEIVRNILIDFTKRGLLFRGRISERLKTRGIFETKFLSQIESDCLALLQVRAILQHLGLESTCDDSIIVKEVCTVVARRAAQLCGAGMAAVVDRIRENRGLDALKVTVGVDGTLYKLHPHFAKVMHETVKDLAPKCDVSFLQSEDGSGKGAALITAVACRIREAGQR
